Test results published in patent US20130310317A1 (Bristol-Myers Squibb, published 2013).
Positions count from the first letter of the chain named. No constants are given. Whether binding was seen depends on the method and setting. Some binding calls cover weakened binding; strength is not graded here.

Sequences of proteins named here, by UniProt entry; tags and fusion partners are left off. Residues count along the entry.
UniProt P08069, residues 31-932: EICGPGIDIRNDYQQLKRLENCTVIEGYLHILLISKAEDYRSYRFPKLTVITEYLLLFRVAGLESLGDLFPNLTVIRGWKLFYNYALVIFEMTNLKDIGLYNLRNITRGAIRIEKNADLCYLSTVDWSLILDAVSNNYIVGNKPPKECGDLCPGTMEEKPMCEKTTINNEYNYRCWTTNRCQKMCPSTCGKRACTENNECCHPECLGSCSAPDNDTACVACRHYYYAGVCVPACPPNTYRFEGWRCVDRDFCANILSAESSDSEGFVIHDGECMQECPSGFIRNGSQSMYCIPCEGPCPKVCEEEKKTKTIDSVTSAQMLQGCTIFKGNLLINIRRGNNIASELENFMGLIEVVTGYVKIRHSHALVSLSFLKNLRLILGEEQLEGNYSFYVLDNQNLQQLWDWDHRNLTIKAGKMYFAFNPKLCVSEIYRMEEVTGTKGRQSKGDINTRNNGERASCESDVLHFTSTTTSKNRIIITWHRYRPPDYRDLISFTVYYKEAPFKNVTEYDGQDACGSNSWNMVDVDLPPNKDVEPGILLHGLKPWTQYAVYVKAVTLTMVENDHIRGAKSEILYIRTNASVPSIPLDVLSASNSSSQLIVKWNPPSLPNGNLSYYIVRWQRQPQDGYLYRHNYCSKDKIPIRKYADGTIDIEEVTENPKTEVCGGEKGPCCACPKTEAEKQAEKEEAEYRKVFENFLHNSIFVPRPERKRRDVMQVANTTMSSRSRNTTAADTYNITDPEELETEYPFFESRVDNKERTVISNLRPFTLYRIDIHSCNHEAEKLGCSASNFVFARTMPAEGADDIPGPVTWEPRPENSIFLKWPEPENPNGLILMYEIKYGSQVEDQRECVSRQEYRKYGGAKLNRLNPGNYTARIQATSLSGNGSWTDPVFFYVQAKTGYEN

B1: 385A08 (designed binder)
chain: VSDVPRDLEVVAATPTSLLISWSARLKVARYYRITYGETGGNSPVQEFTVPKNVYTATISGLKPGVDYTITVYAVTRFRDYQPISINYRTHHHHHH
notes: FG loop optimized derivative of 338A06; also called clone 385A08; unmodified 385A08
B2: 385F08 (designed binder)
chain: B1 chain with R77S, F78L, Q82A
notes: FG loop optimized derivative of 338A06
B3: 218C04 (designed binder)
chain: VSDVPRDLEVVAATPTSLLISWSPYLRVARYYRITYGETGGNSPVQEFTVPSSARTATISGLKPGVDYTITVYAVTPSNIIGRHYGPISINYRTHHHHHH
notes: also called clone 218C04; pre-optimized clone
B4: 338A05 (designed binder)
chain: B3 chain with P24D, Y25S, R27K, A29S, S52K, S53Q, A54Y, R55H
notes: Optimized derivative of 218C04
B5: 354C05 (designed binder)
chain: VSDVPRDLEVVAATPTSLLISWSSNLVVKRYYRITYGETGGNSPVQEFTVPKDPSTATISGLKPGVDYTITVYAVTDYEMKPRNYGPISINYRTHHHHHH
B6: 354D10 (designed binder)
chain: VSDVPRDLEVVAATPTSLLISWPDHVKVQRYYRITYGETGGNSPVQEFTVPQHSRTATISGLKPGVDYTITVYAVTYTGYGTERNYQPISINYRTHHHHHH
B7: 354C10 (designed binder)
chain: VSDVPRDLEVVAATPTSLLISWPTHYKVARYYRITYGETGGNSPVQEFTVPKHESTATISGLKPGVDYTITVYAVTLNVAYSREVRPISINYRTHHHHHH
B8: 354E02 (designed binder)
chain: VSDVPRDLEVVAATPTSLLISWGSHLRVSRYYRITYGETGGNSPVQEFTVPYDSHTATISGLKPGVDYTITVYAVTQGPNRGRNYQPISINYRTHHHHHH
B9: 354A09 (designed binder)
chain: B3 chain with P24K, Y25R, R27Q, A29S, S52Y, S53N, A54Y, R55K
B10: 354B10 (designed binder)
chain: B1 chain with A24E, R25N, K27R, A29Q, K52S, N53S, Y55H, R77K, F78M, Q82R
B11: 339A01 (designed binder)
chain: B1 chain with A24T, R25A, A29Q, N53H, V54S, Y55H, R77K, F78M, Q82R
notes: as for B4
B12: 353H09 (designed binder)
chain: B1 chain with A24D, R25K, A29Q, N53H, V54D, Y55R, R77K, F78M, Q82R
notes: as for B4
B13: 353F10 (designed binder)
chain: VSDVPRDLEVVAATPTSLLISWPTHYKVARYYRITYGETGGNSPVQEFTVPKHTYTATISGLKPGVDYTITVYAVTTTKGLRHYGPISINYRTHHHHHH
notes: as for B4

Molecular target: T1, recombinant human IGF-IR (human, UniProt P08069 31-932)
T1 construct: Bought (R&D Systems); also called insulin-like growth factor-I receptor; IGF-1R
Test: direct binding ELISA: plate coated with 10 nM IGF-IR, His-tagged clone detected with His-HRP probe, TMB, OD450
Method: MaxiSorp™ plates (Nunc International, Rochester, N.Y.) were coated with 10 nM IGF-IR in PBS at 4° C. overnight followed by blocking in PBS-casein buffer (Pierce) for 3 hours at room temperature. Purified fibronectin-based scaffold proteins in casein buffer were bound to each well for 1 hour at room temperature at a concentration of 5 nM. The plate was washed with PBST and 100 μl of a 1:4000 dilution of His-HRP probe (Pierce) was added to each well with incubation for 15 min at room temperature. The wells were washed 5 times with PBST and the bound HRP was detected with TMB detection reagents (BD biosciences) according to the manufacturer's instructions.

binding, binds:
B1, B2

Molecular target: T1, recombinant human IGF-IR
Test: direct binding ELISA on coated IGF-IR

binding, binds:
B1, B2

Molecular target: T1, recombinant human IGF-IR
Test: competitive ELISA: plate coated with 30 nM IGF-IR, clone bound first, then 10 nM biotinylated IGF-I as the blocked ligand, streptavidin-HRP/TMB, OD450
Method: MaxiSorp™ plates (Nunc International, Rochester, N.Y.) were coated with 30 nM IGF-IR in PBS at 4° C. overnight followed by blocking in OptEIA buffer (BD biosciences, San Diego, Calif.) for 3 hours at room temperature. Purified fibronectin-based scaffold proteins in OptEIA buffer were bound to each well for 1 hour at room temperature at concentrations ranging from 50 pM to 1 μM. […] The excess ligand was removed by washing with PBST and bound ligand was detected with streptavidin-HRP (Pierce, Rockford, Ill.) using TMB detection reagents (BD biosciences) according to the manufacturer's instructions

binding, binds:
B3, B4, B5, B6, B7, B8, B9, B10, B11, B12, B13
